Some entries share one result that the patent states for a list of compounds.
System: salicylate responsive promoter sequence of the PR1 (pathogenesis-related protein 1) gene (AT2G14610)
Assay: Induction of defense gene expression in Arabidopsis thaliana (PR1 promoter-GFP reporter plants)
Assay type: in vivo
Conditions: 3rd day after spraying, mock treated leaves set as 1.00
Description: Arabidopsis thaliana reporter plants containing the coding sequence of a green fluorescent protein (GFP) linked to the salicylate responsive promoter sequence of the PR1 (pathogenesis-related protein 1) gene (AT2G14610) were grown for five days and then sprayed with compounds. On the 3rd day after spraying, plant fluorescence was assessed with a MacroFluo instrument from Leica Microsystems (Wetzlar, Germany). Fluorescences were quantified with the Meta-Morph Microscopy Automation & Image Analysis Software (Molecular Devices, Sunnyvale, Calif., United States). Background fluorescence in mock treated leaves was set as 1.00.

Row | Compound | relative fluorescence value (300 ppm) | relative fluorescence value (75 ppm of compound)
1 | CC(C)CC(NC(=O)c1sc(Cl)c(Cl)c1Cl)C(=O)O (racemic) [II.31] | above 2 | –
2 | CC[C@H](C)[C@H](NC(=O)c1sc(Cl)c(Cl)c1Cl)C(=O)O [II.30] | above 2 | –
3 | O=C(CNC(=O)c1sc(Cl)c(Cl)c1Cl)Oc1ccccc1 [II.08] | above 2 | –
4 | CCCOC(=O)CNC(=O)c1sc(Cl)c(Cl)c1Cl [II.10] | above 2 | –
5 | O=C(CNC(=O)c1sc(Cl)c(Cl)c1Cl)OC1CCC1 [II.16] | – | above 2
6 | CCOC(=O)[C@@H](Cc1ccccc1)NC(=O)c1sc(Cl)c(Cl)c1Cl [II.37] | above 2 | –
7 | O=C(CNC(=O)c1sc(Cl)c(Cl)c1Cl)OCC1CC1 [II.18] | above 2 | –
8 | CCOC(=O)C1(NC(=O)c2sc(Cl)c(Cl)c2Cl)CC1 [II.02, ethyl 1-{[(3,4,5-trichloro-2-thienyl)carbonyl]amino}cyclopropanecarboxylate] | above 2 | –
9 | O=C(CNC(=O)c1sc(Cl)c(Cl)c1Cl)OCC(F)(F)F [II.07] | above 2 | –
10 | CCOC(=O)C(CC(C)C)NC(=O)c1sc(Cl)c(Cl)c1Cl (racemic) [II.04] | above 2 | –
11 | CCCCOC(=O)CNC(=O)c1sc(Cl)c(Cl)c1Cl [II.11] | above 2 | –
12 | CC[C@H](C)[C@H](NC(=O)c1sc(Cl)c(Cl)c1Cl)C(=O)OC [II.14] | above 2 | –
13 | C[Si](C)(C)COC(=O)CNC(=O)c1sc(Cl)c(Cl)c1Cl [II.23] | above 2 | –
14 | CC(C)(C)OC(=O)CNC(=O)c1sc(Cl)c(Cl)c1Cl [II.24] | above 2 | –
15 | O=C(NC(Cc1ccccc1)C(=O)O)c1sc(Cl)c(Cl)c1Cl (racemic) [II.32] | above 2 | –
16 | CC(C)COC(=O)CNC(=O)c1sc(Cl)c(Cl)c1Cl [II.19] | above 2 | –
17 | C#CCOC(=O)CNC(=O)c1sc(Cl)c(Cl)c1Cl [II.20] | above 2 | –
18 | CCOC(=O)[C@H](Cc1ccccc1)NC(=O)c1sc(Cl)c(Cl)c1Cl [II.25] | above 2 | –
19 | COC(=O)CNC(=O)c1sc(Cl)c(Cl)c1Cl [II.01, methyl N-[(3,4,5-trichloro-2-thienyl)carbonyl]glycinate] | above 2 | –
20 | CC/C=C\CCOC(=O)CNC(=O)c1sc(Cl)c(Cl)c1Cl [II.17] | above 2 | –
21 | CCOC(=O)C(Cc1ccccc1)NC(=O)c1sc(Cl)c(Cl)c1Cl (racemic) [II.26] | above 2 | –
22 | C=CCOC(=O)CNC(=O)c1sc(Cl)c(Cl)c1Cl [II.22] | above 2 | –
23 | O=C(CNC(=O)c1sc(Cl)c(Cl)c1Cl)OC1CC1 [II.12] | above 2 | –
24 | C=CC1CC1(NC(=O)c1sc(Cl)c(Cl)c1Cl)C(=O)OC (mixture of isomers) [II.36] | above 2 | –
25 | O=C(O)CNC(=O)c1sc(Cl)c(Cl)c1Cl [II.05, N-[(3,4,5-trichloro-2-thienyl)carbonyl]glycine] | above 2 | –
26 | CCOC(=O)C(Cc1ccc(O)cc1)NC(=O)c1sc(Cl)c(Cl)c1Cl (racemic) [II.15] | above 2 | –
27 | CC(C)OC(=O)CNC(=O)c1sc(Cl)c(Cl)c1Cl [II.09] | above 2 | –
28 | CCOC(=O)CN(C)C(=O)c1sc(Cl)c(Cl)c1Cl [II.35] | above 2 | –
29 | CCOC(=O)[C@H](CC(C)C)NC(=O)c1sc(Cl)c(Cl)c1Cl [II.28] | – | above 2
30 | O=C(NC(C(=O)O)C1CC1)c1sc(Cl)c(Cl)c1Cl (racemic) [II.33] | above 2 | –
